Measured values from paper PMC9967013 (Pharmaceutics, 2023).

Experiment: peptide synthesis
Conditions: conjugation step, one disulfide bridge, sequence written open

“DOTA-PEG3-TZ(PEG4-Octr)-PEG2-Trz-PEG3-Val-Cit-pABOC-FTY720” showed a conjugation yield of 33%.
